Data reported in the supplement of paper PMC12067093, “Discovery and optimisation of a covalent ligand for TRIM25 and its application to targeted protein ubiquitination” (Chemical Science, 2025).
This is one part of the list.

Sequences of proteins named here, by UniProt entry; tags and fusion partners are left off. A change or cut given only in a name is not applied to a line headed by its entry.
UniProt Q9HC98: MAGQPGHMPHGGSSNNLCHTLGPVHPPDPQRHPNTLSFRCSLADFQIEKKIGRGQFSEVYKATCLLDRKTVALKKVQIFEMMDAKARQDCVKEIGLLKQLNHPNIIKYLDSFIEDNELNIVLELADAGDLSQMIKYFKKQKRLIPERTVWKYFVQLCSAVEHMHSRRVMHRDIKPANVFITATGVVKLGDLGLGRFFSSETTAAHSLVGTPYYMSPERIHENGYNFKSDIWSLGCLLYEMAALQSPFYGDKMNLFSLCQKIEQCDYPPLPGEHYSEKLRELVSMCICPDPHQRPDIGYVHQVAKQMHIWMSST
UniProt P19878: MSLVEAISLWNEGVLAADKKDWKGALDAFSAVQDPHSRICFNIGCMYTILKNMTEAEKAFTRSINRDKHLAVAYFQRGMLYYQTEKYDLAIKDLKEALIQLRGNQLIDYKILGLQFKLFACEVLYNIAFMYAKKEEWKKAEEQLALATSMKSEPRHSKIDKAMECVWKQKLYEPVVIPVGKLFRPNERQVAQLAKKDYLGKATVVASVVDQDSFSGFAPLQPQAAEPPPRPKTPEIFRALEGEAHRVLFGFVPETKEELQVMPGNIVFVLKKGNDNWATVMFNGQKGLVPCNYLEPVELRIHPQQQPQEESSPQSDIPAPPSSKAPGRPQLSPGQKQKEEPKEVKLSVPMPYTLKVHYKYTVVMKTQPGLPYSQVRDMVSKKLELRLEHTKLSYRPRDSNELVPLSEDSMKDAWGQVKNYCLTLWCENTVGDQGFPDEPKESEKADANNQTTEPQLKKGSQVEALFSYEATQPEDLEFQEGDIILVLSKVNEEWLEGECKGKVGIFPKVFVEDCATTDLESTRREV
UniProt P55160: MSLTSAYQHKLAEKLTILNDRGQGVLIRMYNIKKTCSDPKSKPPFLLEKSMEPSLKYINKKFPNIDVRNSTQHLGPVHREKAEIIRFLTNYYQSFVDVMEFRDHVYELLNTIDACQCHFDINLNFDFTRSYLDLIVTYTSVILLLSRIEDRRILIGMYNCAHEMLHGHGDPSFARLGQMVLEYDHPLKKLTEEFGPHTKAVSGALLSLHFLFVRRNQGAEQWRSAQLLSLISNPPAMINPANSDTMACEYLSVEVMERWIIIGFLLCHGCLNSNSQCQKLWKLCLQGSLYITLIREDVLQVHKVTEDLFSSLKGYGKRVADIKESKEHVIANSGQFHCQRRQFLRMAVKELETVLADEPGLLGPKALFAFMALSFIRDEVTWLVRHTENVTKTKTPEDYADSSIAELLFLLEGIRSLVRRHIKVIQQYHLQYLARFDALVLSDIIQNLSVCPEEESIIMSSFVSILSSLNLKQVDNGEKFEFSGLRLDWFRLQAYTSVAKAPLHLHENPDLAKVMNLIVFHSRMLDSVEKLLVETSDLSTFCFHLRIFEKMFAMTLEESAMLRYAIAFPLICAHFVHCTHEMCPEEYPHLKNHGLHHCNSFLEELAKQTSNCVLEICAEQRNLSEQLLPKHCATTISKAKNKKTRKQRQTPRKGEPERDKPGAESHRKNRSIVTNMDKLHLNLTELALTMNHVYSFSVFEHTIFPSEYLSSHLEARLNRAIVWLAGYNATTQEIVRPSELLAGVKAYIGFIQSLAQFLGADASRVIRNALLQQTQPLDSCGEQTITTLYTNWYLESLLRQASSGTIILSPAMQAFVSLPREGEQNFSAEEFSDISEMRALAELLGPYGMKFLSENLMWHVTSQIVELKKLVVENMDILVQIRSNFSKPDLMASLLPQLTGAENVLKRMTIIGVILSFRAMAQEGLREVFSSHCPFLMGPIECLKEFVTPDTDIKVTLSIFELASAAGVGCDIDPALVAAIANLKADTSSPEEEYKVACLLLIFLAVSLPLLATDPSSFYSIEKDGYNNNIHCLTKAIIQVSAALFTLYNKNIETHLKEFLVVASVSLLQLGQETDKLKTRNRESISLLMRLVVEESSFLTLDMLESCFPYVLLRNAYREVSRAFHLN
UniProt Q8N4C6: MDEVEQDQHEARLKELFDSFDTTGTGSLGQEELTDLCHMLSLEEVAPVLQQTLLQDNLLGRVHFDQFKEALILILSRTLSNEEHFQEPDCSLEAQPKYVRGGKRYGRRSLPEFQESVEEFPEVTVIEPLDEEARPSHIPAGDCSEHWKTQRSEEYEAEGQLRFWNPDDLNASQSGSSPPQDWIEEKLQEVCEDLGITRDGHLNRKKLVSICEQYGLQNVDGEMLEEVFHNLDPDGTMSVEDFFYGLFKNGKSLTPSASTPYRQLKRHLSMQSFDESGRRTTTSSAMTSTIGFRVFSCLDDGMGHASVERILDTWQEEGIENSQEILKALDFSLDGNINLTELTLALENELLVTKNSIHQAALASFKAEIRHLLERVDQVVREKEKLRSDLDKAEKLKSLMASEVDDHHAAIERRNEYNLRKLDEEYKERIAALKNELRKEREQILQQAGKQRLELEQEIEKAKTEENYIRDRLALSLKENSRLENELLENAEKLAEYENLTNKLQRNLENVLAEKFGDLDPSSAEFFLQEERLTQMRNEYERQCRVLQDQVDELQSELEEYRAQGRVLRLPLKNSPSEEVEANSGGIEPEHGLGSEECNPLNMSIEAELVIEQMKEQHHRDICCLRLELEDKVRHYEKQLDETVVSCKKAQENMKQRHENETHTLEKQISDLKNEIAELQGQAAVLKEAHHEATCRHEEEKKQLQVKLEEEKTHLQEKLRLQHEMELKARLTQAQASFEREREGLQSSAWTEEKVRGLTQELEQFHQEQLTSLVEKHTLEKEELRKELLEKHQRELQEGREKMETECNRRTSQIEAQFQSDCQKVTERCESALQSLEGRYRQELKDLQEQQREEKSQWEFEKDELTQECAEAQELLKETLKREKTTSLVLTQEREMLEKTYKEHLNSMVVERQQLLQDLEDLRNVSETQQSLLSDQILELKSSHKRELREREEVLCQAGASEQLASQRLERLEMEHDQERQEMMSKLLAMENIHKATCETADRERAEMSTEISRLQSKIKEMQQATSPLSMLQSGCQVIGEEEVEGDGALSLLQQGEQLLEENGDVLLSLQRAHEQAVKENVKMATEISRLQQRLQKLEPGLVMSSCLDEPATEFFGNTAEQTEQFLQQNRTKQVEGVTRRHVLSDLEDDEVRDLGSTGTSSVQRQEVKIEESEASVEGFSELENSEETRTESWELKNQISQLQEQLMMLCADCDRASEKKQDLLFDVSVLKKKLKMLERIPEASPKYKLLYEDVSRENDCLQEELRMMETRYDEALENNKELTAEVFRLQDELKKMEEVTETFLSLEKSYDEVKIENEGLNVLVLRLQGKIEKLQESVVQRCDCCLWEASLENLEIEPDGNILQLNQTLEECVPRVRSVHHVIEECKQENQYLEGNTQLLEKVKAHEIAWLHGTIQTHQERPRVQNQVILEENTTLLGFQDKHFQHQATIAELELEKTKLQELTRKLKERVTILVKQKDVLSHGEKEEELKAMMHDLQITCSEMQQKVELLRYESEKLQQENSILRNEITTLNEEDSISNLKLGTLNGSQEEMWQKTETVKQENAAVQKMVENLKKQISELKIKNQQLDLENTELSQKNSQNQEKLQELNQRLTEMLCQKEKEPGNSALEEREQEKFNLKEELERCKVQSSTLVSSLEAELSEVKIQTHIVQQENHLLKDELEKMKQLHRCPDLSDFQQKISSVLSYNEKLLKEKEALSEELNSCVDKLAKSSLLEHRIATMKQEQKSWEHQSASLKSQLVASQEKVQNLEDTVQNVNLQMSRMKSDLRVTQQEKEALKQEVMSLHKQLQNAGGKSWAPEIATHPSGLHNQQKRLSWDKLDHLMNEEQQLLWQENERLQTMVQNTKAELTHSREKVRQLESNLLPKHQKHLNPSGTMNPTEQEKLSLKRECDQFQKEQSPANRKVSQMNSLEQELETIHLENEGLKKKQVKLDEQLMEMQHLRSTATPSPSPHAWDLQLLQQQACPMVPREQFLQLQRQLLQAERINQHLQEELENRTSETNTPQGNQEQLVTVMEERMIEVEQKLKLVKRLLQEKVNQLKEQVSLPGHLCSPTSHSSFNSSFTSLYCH
UniProt Q96IV0: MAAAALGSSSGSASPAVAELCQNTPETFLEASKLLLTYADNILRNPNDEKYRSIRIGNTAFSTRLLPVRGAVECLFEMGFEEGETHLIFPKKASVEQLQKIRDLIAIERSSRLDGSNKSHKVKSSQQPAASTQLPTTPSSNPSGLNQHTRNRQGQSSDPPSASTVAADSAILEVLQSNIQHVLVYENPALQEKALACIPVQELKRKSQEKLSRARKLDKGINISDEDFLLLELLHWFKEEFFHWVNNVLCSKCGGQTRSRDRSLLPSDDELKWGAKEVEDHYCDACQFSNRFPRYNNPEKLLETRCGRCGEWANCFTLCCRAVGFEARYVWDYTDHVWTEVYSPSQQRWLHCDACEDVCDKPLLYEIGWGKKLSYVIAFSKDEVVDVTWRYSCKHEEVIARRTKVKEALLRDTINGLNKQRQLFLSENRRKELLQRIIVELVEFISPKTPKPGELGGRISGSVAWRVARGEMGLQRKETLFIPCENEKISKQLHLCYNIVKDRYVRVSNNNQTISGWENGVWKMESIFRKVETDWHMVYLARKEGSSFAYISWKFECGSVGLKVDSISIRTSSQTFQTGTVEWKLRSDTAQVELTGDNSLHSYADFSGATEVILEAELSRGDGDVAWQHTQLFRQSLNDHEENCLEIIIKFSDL
UniProt Q6ZNB6: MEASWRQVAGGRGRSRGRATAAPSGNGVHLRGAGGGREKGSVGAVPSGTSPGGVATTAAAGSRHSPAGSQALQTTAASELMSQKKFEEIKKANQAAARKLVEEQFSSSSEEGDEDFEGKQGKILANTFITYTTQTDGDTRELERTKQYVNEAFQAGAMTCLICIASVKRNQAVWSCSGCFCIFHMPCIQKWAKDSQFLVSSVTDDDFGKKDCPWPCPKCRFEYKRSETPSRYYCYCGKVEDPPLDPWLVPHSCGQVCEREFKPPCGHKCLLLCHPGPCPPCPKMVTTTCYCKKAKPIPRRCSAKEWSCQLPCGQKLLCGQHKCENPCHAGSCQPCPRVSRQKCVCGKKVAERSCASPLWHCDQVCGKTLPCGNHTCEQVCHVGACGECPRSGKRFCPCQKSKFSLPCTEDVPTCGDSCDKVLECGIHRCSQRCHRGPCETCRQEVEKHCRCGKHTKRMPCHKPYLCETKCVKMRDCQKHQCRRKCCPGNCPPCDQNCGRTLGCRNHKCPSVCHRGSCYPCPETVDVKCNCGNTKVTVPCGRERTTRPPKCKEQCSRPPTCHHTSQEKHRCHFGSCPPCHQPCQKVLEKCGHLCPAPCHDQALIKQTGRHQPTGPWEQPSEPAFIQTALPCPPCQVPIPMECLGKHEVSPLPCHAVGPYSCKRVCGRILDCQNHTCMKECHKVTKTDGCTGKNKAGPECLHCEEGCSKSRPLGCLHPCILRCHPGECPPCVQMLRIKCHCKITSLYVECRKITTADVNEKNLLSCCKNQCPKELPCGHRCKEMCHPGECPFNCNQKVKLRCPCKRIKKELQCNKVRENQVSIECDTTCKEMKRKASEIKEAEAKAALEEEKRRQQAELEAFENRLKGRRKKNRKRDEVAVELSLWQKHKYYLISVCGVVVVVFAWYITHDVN
UniProt Q6PIU2: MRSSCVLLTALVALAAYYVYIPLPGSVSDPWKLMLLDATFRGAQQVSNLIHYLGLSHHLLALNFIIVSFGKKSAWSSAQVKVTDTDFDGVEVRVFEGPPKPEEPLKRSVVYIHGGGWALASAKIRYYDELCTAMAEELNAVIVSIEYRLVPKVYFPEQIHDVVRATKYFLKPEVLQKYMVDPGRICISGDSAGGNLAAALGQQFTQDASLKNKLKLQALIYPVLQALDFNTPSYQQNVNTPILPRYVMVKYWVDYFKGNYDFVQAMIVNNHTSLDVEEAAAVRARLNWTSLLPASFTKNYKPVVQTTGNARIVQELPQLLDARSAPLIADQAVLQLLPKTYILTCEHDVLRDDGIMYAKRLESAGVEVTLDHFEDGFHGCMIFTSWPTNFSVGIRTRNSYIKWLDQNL
UniProt P49821, whole entry, looked up: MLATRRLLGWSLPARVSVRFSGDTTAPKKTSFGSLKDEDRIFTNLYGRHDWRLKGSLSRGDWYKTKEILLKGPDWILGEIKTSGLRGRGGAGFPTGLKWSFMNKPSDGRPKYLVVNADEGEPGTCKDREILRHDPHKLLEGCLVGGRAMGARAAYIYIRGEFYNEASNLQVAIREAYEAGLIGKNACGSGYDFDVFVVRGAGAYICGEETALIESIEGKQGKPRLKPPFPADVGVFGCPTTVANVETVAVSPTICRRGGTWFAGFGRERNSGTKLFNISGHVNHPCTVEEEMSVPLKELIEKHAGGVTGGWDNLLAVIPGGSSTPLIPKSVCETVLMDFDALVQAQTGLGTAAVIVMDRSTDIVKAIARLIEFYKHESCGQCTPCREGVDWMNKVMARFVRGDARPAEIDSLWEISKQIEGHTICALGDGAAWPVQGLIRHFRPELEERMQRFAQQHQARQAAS

Compound: CC1Cc2ccccc2N1C(=O)C1CCCN(C1)C(=O)CCl (mixture of isomers) [TRIM25 ligand 11 (diastereomer mixture)]
Experiment: probe-labelled cysteine peptide fold change vs DMSO (competition) (log2 fold change); higher = less target engagement (more negative = stronger competition)
Settings: THP-1, incubation time: 4 h
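Also: competitive chemoproteomic profiling in live THP-1 cells with an iodoacetamide desthiobiotin (IA-DTB) probe, comparing probe-labelled peptide intensities in compound-treated cells against DMSO-treated controls.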

Target	probe-labelled cysteine peptide fold change (10 µM)	probe-labelled cysteine peptide fold change (50 µM)
NIT1_Q86X76_203_IGLAVCYDMR (UniProt Q86X76)	0.169	-0.227
NDUFS6_O75380_112_TGTCGYCGLQFR (UniProt O75380)	-0.267	-0.229
NEMF_O60524_201_VLNPLLPYGPALIEHCLLENGFSGNVK (UniProt O60524)	0.0627	0.0743
NEK9_Q8TD19_375_QVCAGNTHFAVVTVEK (UniProt Q8TD19)	-0.0198	-0.0595
NEK9_Q8TD19_288_AMEVDSSQYSLELIQMVHSCLDQDPEQRPTADELLDRPLLR (UniProt Q8TD19)	0.241	0.209
NFX1_Q12986_832_SNIPCHLVDISCGLPCSATLPCGMHK (UniProt Q12986)	-0.0383	0.0383
NELFCD_Q8IXH7_417_GASELVAELSTLYQCIR (UniProt Q8IXH7)	-0.0179	-0.0508
NDUFA7_O95182_55_LSNNYYCTR (UniProt O95182)	-0.087	0.0253
NIPBL_Q6KC79_52_IAEEVNCLLACRDDNLVSQLVHSLNQVSTDHIELK (UniProt Q6KC79)	0.000251	-0.297
NEK6_Q9HC98_157_YFVQLCSAVEHMHSR (UniProt Q9HC98)	0.0117	-0.0704
NELFCD_Q8IXH7_397_AVETVHNLCCNENK (UniProt Q8IXH7)	0.12	-0.0115
NCF2_P19878_291_GLVPCNYLEPVELR (UniProt P19878)	-0.17	-0.137
NCOR1_O75376_1274_ESPVSAPLEGLICR (UniProt O75376)	-0.0861	-0.136
NIPBL_Q6KC79_2151_SLFTVGALCR (UniProt Q6KC79)	0.0145	0.336
NDOR1_Q9UHB4_486_VAQGQTGNFLFFGCR (UniProt Q9UHB4)	-0.0422	-0.0102
NCKAP1L_P55160_612_QTSNCVLEICAEQR (UniProt P55160)	-0.0471	-0.248
NFIC_P08651_157+163_AAQCGHPVLCVQPHHIGVAVK (UniProt P08651)	-0.117	-0.0985
NELFCD_Q8IXH7_461_YFQLQTDHTPVHLALLDEISTCHQLLHPQVLQLLVK (UniProt Q8IXH7)	0.237	0.148
NIN_Q8N4C6_1502_AMMHDLQITCSEMQQK (UniProt Q8N4C6)	-0.0439	0.0661
NIPSNAP2_O75323_93_ICQEVLPK (UniProt O75323)	-0.271	-0.255
NCOR2_Q9Y618_1503_ACYEESLK (UniProt Q9Y618)	-0.00579	0.0659

Target	probe-labelled cysteine peptide fold change (10 µM)	probe-labelled cysteine peptide fold change (50 µM)
NFIC_P08651_163_AAQCGHPVLCVQPHHIGVAVK (UniProt P08651)	0.0061	0.0366
NCOA3_Q9Y6Q9_716_DTSSITSCGDGNVVK (UniProt Q9Y6Q9)	-0.118	-0.309
NISCH_Q9Y2I1_185_TDLGHILDFTCR (UniProt Q9Y2I1)	-0.0479	-0.0955
NDRG1_Q92597_289_MADCGGLPQISQPAK (UniProt Q92597)	-0.006	-0.0335
NCOA4_Q13772_244_ACNFFNNVGGNLK (UniProt Q13772)	-0.138	0.00789
NGLY1_Q96IV0_352_WLHCDACEDVCDKPLLYEIGWGK (UniProt Q96IV0)	0.151	0.264
NF1_P21359_434_IDAVYCHSVELR (UniProt P21359)	-0.102	-0.0177
NEDD1_Q8NHV4_607_FIQNMIQETLDDFREACHR (UniProt Q8NHV4)	0.159	0.114
NCK1_P16333_340_ETVYCIGQR (UniProt P16333)	0.0423	0.105
NEK9_Q8TD19_506_EVYSWGCGEYGR (UniProt Q8TD19)	0.0396	0.00542
NEK9_Q8TD19_696_LAMTPTERPHGSDICTSWPR (UniProt Q8TD19)	0.251	-0.0437
NCOA5_Q9HCD5_200_RFDAERPVDCSVIVVNK (UniProt Q9HCD5)	-0.00882	-0.032
NFXL1_Q6ZNB6_705_AGPECLHCEEGCSK (UniProt Q6ZNB6)	-0.187	-0.0758
NIT2_Q9NQR4_146_TLSPGDSFSTFDTPYCR (UniProt Q9NQR4)	0.263	0.182
NCEH1_Q6PIU2_345_TYILTCEHDVLRDDGIMYAK (UniProt Q6PIU2)	0.0222	0.0537
NDUFAF6_Q330K2_236_VFLPMDICMLHGVSQEDFLR (UniProt Q330K2)	-0.0491	-0.0128
NECAP2_Q9NVZ3_11_MEESGYESVLCVKPDVHVYR (UniProt Q9NVZ3)	-0.174	-0.048
NCKAP1L_P55160_942_EVFSSHCPFLMGPIECLK (UniProt P55160)	-0.0872	0.14
NELFE_P18615_297_NCAFVTYEK (UniProt P18615)	-0.024	-0.0271
NGLY1_Q96IV0_283+286_EVEDHYCDACQFSNRFPR (UniProt Q96IV0)	-0.0665	-0.135
NISCH_Q9Y2I1_935_GTHNCR (UniProt Q9Y2I1)	-0.0567	-0.177

Target	probe-labelled cysteine peptide fold change (10 µM)	probe-labelled cysteine peptide fold change (50 µM)
NFX1_Q12986_377_VTAPVWSCQSCYHVFHLNCIK (UniProt Q12986)	0.0626	0.0766
NFKBIA_P25963_167_GNTPLHLACEQGCLASVGVLTQSCTTPHLHSILK (UniProt P25963)	-0.0897	-0.237
NHLRC2_Q8NBF2_716_AILFSQPLQITDTQQGCIAPVELR (UniProt Q8NBF2)	-0.131	-0.194
NHEJ1_Q9H9Q4_97_DAAHPSEATFSCDCVADALILR (UniProt Q9H9Q4)	-0.0671	-0.126
NCDN_Q9UBB6_725_MAALEQCLSEP (UniProt Q9UBB6)	0.0752	0.00418
NEDD9_Q14511_46_KGDILTVIEQNTGGLEGWWLCSLHGR (UniProt Q14511)	-0.027	0.0648
NDUFS8_O00217_121_LCEAICPAQAITIEAEPR (UniProt O00217)	0.073	0.261
NEK6_Q9HC98_258_MNLFSLCQK (UniProt Q9HC98)	0.202	0.258
NID1_P14543_1219_LYGITTALSQCPQGHNYCSVNNGGCTHLCLATPGSR (UniProt P14543)	-0.051	-0.0572
NDUFV1_P49821_385_HESCGQCTPCR (UniProt P49821)	-0.203	0.106
NFKBIB_Q15653_240_DAGADLDKPEPTCGR (UniProt Q15653)	-0.0754	-0.183
NFAT5_O94916_270_KSPMLCGQYPVK (UniProt O94916)	-0.151	-0.216
NCKAP5L_Q9HCH0_1076_NGLVGPLQGCGKPPGKPSSEPGRR (UniProt Q9HCH0)	-0.117	-0.14
NGLY1_Q96IV0_283+286_EVEDHYCDACQFSNR (UniProt Q96IV0)	0.263	-0.144
NFATC1_O95644_383_GGFCDQYLAVPQHPYQWAK (UniProt O95644)	-0.188	-0.156
NDUFV1_P49821_187_NACGSGYDFDVFVVR (UniProt P49821)	0.0197	0.136
NDRG2_Q9UN36_255_CPVMLVVGDQAPHEDAVVECNSK (UniProt Q9UN36)	-0.0589	0.0874
NIF3L1_Q9GZT8_148_GLGACTSRPIHPSK (UniProt Q9GZT8)	0.0755	-0.156
NEMF_O60524_575_YLTPGDIYVHADLHGATSCVIK (UniProt O60524)	0.0554	0.13
NCKAP1L_P55160_1032_DGYNNNIHCLTK (UniProt P55160)	0.176	0.375
NEMF_O60524_201_RVLNPLLPYGPALIEHCLLENGFSGNVK (UniProt O60524)	-0.141	0.022

Single records (already shown). Values in the order: probe-labelled cysteine peptide fold change (10 µM) | probe-labelled cysteine peptide fold change (50 µM)
NELFCD_Q8IXH7_461_YFQLQTDHTPVHLALLDEISTCHQLLHPQVLQLLVK (UniProt Q8IXH7) reads 0.237 | 0.148
NCF2_P19878_291_GLVPCNYLEPVELR (UniProt P19878) reads -0.17 | -0.137
NCOA4_Q13772_244_ACNFFNNVGGNLK (UniProt Q13772) reads -0.138 | 0.00789

(continued)

Target	probe-labelled cysteine peptide fold change (10 µM)	probe-labelled cysteine peptide fold change (50 µM)
NDUFB7_P17568_80_DSFPNFLACK (UniProt P17568)	-0.0442	0.0837
NEU1_Q99519_287_NQNNYHCHCR (UniProt Q99519)	0.196	0.174
NCKAP1L_P55160_36_TCSDPK (UniProt P55160)	0.158	0.0267
NDUFA11_Q86Y39_18_QYWDIPDGTDCHRK (UniProt Q86Y39)	-0.0472	-0.0465
NCS1_P62166_38_DCPSGQLDAAGFQK (UniProt P62166)	0.121	0.217
NCEH1_Q6PIU2_345_TYILTCEHDVLR (UniProt Q6PIU2)	0.154	0.0919
NDC1_Q9BTX1_9_ATAVSRPCAGR (UniProt Q9BTX1)	0.00914	-0.136
NDUFA9_Q16795_86_CDKYDIMHLRPMGDLGQLLFLEWDAR (UniProt Q16795)	-0.201	-0.102
NFXL1_Q6ZNB6_371_TLPCGNHTCEQVCHVGACGECPR (UniProt Q6ZNB6)	-0.0361	0.161
NDUFA8_P51970_36_AAAHHYGAQCDK (UniProt P51970)	0.0907	0.233
NEK7_Q8TDX7_53_AACLLDGVPVALKK (UniProt Q8TDX7)	-0.172	-0.116
NDRG3_Q9UGV2_30_NFQDFDCQEHDIETTHGVVHVTIR (UniProt Q9UGV2)	0.0929	0.0549
NFIC_P08651_88_DIRPECR (UniProt P08651)	0.178	0.113
NIN_Q8N4C6_1261_ENDCLQEELR (UniProt Q8N4C6)	0.116	0.0579
NDUFAF7_Q7L592_275_DHVEVCPDAGVIIEELSQR (UniProt Q7L592)	0.211	0.253
NELFCD_Q8IXH7_169_LAEAHPDCLMLNFTVK (UniProt Q8IXH7)	0.0937	-0.0159
NFATC2IP_Q8NCF5_332_LGVADIIDCVVLTSSPEATETSQQLQLR (UniProt Q8NCF5)	0.0113	0.119
NECTIN1_Q15223_172_VLVATCTSANGKPPSVVSWETR (UniProt Q15223)	0.0651	0.0867
NELFB_Q8WX92_254+259_AELLMSLHDLDVGEICTVDPCHK (UniProt Q8WX92)	-0.126	-0.388
